Results deposited as PubChem BioAssay AID1259308 (NCATS, 2017)

Aim: 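Genes whose loss raises luciferase production in HEK293 cells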 (primary screen)
Cells: human HEK293 embryonic kidney cells stably expressing firefly luciferase (HEK-CMV-Luc2-Hygro)
Reagents: single siRNA against human genes, 0.8 pmol siRNA per well
Time to read-out: 72 h
Read-out: 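Luciferase light (ONE-Glo) measured on one replicate plate set and viability (CellTiter-Glo) on the other, scaled to a negative control siRNA, with robust z-scores and luciferase per cell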
Reading the numbers: total luciferase, z-score: higher = more reporter protein produced
Rule for the call: 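An siRNA counts as active if its total luciferase robust z-score exceeds 3; genes with two or more such siRNAs out of three were retested with fresh siRNAs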
Meaning of the calls: active = raised luciferase; inactive = no rise
Shown is a random part of about 59,000 reagents. About 1,510 of them (2.6%) were called active. 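Calls use total luciferase alone and ignore viability, so some active siRNAs may act by altering cell number.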 Reagents against one gene are numbered here. Further read-outs or replicates are left out here.

ANKH #1 gave total luciferase, z-score -1.15; inactive. After knock-down of ANKH #2, the screen gave total luciferase, z-score -1.05; inactive. With knock-down of ANKH #3 the results were total luciferase, z-score -0.245; inactive. After knock-down of GUCY1A2 #1 the results were total luciferase, z-score -0.53; inactive. Depletion of GUCY1A2 #2 resulted in: total luciferase, z-score 0.771; inactive. With knock-down of GUCY1A2 #3, the screen gave total luciferase, z-score 1.56; inactive.

After knock-down of GRK2 #1, the record shows total luciferase, z-score 0.454; inactive. For GRK2 #2 the deposit lists total luciferase, z-score 0.624; inactive. For GRK2 #3, the entry reads total luciferase, z-score 0.561; inactive. Against GPRC5A #1, the values are total luciferase, z-score -0.206; inactive. After knock-down of GPRC5A #2, the screen gave total luciferase, z-score -1.19; inactive. Depletion of GPRC5A #3 came out at: total luciferase, z-score -0.478; inactive.

Entries above whose gene name begins with A or a (3):
ANKH #1: total luciferase, z-score = -1.15; outcome = inactive
ANKH #2: total luciferase, z-score = -1.05; outcome = inactive
ANKH #3: total luciferase, z-score = -0.245; outcome = inactive
